Results are given in words; binding and its absence hold for the method and conditions named. Some results given as binding are weak or reduced against the parent protein; the word gives no strength.
T1: IGFBP-1 (UniProt P08833)
T1 sequence (looked up): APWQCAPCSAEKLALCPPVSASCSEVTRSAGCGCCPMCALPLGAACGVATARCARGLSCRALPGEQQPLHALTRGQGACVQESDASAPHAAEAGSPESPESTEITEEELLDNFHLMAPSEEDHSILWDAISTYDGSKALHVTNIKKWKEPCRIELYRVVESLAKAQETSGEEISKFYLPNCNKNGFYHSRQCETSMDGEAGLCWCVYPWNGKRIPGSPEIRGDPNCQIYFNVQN

T2: IGFBP-1 (UniProt P08833 26-259)
T2 construct: in kinetics immobilised on a CM chip by EDC/NHS; biotinylated in the phage selection
T2 sequence (looked up): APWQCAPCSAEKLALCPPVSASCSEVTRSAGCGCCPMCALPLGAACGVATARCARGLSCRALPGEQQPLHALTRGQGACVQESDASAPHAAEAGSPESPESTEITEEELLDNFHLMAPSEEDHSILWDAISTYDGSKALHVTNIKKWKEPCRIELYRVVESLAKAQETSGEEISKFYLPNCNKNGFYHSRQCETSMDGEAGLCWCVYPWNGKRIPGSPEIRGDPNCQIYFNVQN


Columns and labels:
IGFBP-1 [1] = target: T1, IGFBP-1; assay: inhibition assays of IGFBP-1 binding to IGF-I
IGFBP-1 [2] = target: T2, IGFBP-1; assay: monovalent phage display, 5 rounds of selection on biotinylated IGFBP-1 with off-rate selection by IGF
IGFBP-1 [3] = target: T2, IGFBP-1; assay: inhibition of IGFBP-1 binding to IGF-I
IGFBP-1 [4] = target: T1, IGFBP-1; assay: monovalent phage display, 5 rounds of selection on biotinylated IGFBP-1 with off-rate selection by IGF
IGFBP-1 [5] = target: T1, IGFBP-1; assay: BIAcore inhibition assay, 9-10 nM IGFBP-1, immobilized IGF-1

Binder | binding (IGFBP-1 [2]) | binding (IGFBP-1 [3]) | also measured
SEVGCRAGPLQWLCEKYFSTY (cyclic: disulfide between the two Cys (bp1-01 residues Cys-1 and Cys-10)) [bp1-21A] |  |  | binding (IGFBP-1 [1]): binds
AETLCRAGPLQWLCEKYFSTY (peptide, not shown: large carriers) [Y0791L (peptide-phage clone)] | binds |  | 
AQWVCRAGPLQWLCEKYFSTY (peptide, not shown: large carriers) [Y0791T (peptide-phage clone)] | binds |  | 
CRAGPLQRLCEKYF (cyclic: disulfide between Cys-1 and Cys-10) [bp1-22] |  | binds | 
QGPDCRAGPLQWLCEKYFSTY (peptide, not shown: large carriers) [Y0791H (peptide-phage clone)] | binds |  | 
CRAGRLQWLCEKYF (cyclic: disulfide between Cys-1 and Cys-10) [bp1-31] |  | binds | 
CRAGALQWLCEKYF (cyclic: disulfide between Cys-1 and Cys-10) [bp1-30] |  | binds | 
CRAGNLQWLCEKYF (cyclic: disulfide between Cys-1 and Cys-10) [bp1-34] |  | binds | 
NSLLCRAGPLQWLCEKYFSTY (peptide, not shown: large carriers) [Y0791S (peptide-phage clone)] | binds |  | 
CRAGPLQHLCEKYF (cyclic: disulfide between Cys-1 and Cys-10) [bp1-24] |  | binds | 
GQQSCRAGPLQWLCEKYFSTY (peptide, not shown: large carriers) [Y0791A (peptide-phage clone)] |  |  | binding (IGFBP-1 [4]): binds
QASECRAGPLQWLCEKYFSTY (peptide, not shown: large carriers) [Y0791K (peptide-phage clone)] | binds |  | 
ASSMCRAGPLQWLCEKYFSTY (peptide, not shown: large carriers) [Y0791D (peptide-phage clone)] | binds |  | 
EARVCRAGPLQWLCEKYFSTY (cyclic: disulfide between the two Cys (bp1-01 residues Cys-1 and Cys-10)) [bp1-25] |  |  | binding (IGFBP-1 [5]): binds
